Results from the supplement of paper PMC11006884.
The list shows a part of the results, in another mix than the full data. The data scatter; read single values as rough.

Sequences of proteins named here, by UniProt entry; tags and fusion partners are left off. A change or cut given only in a name is not applied to a line headed by its entry.
UniProt Q15717, whole entry: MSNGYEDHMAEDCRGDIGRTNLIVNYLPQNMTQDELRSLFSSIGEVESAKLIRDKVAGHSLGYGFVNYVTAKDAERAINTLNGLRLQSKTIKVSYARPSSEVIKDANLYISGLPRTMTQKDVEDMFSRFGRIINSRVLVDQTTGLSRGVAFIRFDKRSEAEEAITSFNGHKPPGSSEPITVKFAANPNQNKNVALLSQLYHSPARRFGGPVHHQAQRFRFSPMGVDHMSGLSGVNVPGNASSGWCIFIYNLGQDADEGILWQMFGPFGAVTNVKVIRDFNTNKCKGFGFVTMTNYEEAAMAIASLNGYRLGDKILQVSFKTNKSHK
UniProt Q15058: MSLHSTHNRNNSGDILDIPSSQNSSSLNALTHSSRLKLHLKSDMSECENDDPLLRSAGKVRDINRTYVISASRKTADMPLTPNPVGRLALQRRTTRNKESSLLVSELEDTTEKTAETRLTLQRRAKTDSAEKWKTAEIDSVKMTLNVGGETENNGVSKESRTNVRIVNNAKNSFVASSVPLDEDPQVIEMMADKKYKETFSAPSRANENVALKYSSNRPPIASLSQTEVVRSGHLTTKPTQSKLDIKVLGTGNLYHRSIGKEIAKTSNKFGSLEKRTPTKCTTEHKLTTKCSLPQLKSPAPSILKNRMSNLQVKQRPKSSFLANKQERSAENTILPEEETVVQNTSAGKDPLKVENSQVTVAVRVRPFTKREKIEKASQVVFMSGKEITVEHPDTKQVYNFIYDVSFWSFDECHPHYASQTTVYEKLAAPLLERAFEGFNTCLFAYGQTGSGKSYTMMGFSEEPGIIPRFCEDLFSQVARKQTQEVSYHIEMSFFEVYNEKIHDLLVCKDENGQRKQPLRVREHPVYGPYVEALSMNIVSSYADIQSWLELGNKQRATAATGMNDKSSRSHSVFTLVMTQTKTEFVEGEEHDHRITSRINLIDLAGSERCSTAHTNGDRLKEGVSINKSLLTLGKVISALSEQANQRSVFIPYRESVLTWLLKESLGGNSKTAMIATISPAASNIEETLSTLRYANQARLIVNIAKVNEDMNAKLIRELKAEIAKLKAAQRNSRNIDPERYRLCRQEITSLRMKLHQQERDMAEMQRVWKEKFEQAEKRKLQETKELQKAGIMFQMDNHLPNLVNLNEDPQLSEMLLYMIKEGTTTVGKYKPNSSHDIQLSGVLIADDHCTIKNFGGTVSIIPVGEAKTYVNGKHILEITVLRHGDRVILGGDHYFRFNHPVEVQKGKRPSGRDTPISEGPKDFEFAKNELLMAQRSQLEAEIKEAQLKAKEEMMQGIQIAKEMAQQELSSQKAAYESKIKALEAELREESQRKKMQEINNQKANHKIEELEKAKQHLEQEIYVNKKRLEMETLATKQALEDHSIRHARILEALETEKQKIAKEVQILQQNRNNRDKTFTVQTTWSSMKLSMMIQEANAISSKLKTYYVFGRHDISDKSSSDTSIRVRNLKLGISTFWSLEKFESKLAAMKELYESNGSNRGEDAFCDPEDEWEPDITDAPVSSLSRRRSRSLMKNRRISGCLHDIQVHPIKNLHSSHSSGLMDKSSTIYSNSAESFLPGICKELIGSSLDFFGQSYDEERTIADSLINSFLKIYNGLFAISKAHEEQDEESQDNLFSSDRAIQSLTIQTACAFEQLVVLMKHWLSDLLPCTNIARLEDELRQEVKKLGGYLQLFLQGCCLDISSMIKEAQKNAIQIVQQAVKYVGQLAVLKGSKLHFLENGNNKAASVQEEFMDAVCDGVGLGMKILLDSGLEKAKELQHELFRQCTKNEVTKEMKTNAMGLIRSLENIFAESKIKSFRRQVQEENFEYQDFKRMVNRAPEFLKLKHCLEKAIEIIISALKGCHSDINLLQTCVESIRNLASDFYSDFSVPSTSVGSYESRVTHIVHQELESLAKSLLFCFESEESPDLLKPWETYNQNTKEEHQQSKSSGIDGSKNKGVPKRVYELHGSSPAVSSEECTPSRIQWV
UniProt Q15365, whole entry, looked up: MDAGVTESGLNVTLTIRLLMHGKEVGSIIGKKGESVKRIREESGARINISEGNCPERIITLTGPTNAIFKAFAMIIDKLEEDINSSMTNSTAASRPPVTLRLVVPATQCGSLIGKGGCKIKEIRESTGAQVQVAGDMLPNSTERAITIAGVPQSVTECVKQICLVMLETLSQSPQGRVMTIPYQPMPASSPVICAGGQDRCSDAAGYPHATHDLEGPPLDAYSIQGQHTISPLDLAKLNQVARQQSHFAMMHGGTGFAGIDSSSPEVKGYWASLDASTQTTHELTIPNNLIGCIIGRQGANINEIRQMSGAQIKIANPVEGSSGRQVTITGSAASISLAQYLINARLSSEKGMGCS
UniProt Q15398: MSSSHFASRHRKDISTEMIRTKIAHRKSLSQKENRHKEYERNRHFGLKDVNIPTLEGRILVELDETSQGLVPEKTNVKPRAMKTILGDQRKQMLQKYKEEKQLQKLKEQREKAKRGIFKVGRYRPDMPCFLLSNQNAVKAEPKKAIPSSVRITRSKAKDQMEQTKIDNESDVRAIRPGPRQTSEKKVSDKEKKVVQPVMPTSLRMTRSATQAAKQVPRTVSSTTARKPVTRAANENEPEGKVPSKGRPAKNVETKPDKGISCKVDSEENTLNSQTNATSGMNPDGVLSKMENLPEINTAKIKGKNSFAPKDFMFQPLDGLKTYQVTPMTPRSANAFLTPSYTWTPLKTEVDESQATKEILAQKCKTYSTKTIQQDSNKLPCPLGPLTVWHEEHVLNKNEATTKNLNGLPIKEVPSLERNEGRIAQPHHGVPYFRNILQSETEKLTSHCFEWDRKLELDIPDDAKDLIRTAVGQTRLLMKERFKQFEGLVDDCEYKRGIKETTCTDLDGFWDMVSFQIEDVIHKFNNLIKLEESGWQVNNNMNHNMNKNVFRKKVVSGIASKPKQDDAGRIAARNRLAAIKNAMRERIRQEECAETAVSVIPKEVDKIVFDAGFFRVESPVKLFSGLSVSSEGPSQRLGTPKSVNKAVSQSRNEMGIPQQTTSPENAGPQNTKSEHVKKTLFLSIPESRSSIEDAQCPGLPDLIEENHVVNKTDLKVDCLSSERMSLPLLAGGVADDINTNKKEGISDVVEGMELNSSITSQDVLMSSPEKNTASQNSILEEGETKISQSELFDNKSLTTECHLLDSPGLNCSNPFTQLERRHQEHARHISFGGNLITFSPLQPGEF
UniProt Q15276: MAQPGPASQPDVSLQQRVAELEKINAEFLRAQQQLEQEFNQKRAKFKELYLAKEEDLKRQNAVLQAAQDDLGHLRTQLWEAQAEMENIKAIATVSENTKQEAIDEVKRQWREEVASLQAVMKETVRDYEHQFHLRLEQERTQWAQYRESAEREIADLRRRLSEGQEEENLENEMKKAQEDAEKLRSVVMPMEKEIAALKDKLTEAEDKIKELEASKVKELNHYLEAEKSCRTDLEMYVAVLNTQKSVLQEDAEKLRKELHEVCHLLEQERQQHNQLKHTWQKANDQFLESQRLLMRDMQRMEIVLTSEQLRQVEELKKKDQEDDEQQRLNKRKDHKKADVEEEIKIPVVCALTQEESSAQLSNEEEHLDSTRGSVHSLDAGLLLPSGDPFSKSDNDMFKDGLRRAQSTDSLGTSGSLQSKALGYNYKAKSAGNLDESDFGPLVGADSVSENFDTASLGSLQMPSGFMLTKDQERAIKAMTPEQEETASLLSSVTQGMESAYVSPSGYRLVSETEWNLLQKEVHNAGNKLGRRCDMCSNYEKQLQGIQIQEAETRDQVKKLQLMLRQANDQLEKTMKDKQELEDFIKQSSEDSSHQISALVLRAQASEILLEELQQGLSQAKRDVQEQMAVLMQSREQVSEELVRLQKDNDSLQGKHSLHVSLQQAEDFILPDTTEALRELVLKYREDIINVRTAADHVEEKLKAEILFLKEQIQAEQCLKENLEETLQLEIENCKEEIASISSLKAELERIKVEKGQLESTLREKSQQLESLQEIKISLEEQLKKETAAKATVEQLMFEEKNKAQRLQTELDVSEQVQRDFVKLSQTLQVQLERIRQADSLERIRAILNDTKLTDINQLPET
UniProt Q49MG5: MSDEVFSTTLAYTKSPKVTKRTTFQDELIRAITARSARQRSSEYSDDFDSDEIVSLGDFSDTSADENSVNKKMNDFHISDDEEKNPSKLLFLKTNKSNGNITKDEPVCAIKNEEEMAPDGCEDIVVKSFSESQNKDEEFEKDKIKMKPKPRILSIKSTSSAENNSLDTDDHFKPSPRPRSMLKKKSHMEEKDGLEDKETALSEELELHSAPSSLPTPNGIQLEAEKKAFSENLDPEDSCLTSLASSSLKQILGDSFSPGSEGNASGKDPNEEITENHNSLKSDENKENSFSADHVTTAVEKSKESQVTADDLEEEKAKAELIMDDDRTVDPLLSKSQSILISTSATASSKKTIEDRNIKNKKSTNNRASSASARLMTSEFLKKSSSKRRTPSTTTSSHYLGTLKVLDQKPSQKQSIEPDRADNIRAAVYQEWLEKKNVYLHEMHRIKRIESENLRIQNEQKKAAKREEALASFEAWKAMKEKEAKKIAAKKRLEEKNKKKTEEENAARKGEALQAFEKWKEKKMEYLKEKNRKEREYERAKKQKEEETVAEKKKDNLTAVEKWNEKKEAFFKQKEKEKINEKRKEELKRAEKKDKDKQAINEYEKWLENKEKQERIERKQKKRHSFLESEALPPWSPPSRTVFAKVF
UniProt Q16576, whole entry, looked up: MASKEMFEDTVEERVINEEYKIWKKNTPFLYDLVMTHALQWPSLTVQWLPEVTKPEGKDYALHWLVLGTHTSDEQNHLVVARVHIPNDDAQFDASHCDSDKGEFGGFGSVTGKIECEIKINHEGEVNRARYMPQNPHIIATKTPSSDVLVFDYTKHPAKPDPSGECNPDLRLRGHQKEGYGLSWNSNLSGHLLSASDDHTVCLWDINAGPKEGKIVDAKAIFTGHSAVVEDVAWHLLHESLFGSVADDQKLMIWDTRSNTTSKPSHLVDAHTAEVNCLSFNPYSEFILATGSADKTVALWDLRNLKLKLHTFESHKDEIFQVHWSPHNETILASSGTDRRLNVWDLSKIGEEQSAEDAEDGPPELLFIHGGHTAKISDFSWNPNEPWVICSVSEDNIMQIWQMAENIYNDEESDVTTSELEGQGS
UniProt Q2NKX8: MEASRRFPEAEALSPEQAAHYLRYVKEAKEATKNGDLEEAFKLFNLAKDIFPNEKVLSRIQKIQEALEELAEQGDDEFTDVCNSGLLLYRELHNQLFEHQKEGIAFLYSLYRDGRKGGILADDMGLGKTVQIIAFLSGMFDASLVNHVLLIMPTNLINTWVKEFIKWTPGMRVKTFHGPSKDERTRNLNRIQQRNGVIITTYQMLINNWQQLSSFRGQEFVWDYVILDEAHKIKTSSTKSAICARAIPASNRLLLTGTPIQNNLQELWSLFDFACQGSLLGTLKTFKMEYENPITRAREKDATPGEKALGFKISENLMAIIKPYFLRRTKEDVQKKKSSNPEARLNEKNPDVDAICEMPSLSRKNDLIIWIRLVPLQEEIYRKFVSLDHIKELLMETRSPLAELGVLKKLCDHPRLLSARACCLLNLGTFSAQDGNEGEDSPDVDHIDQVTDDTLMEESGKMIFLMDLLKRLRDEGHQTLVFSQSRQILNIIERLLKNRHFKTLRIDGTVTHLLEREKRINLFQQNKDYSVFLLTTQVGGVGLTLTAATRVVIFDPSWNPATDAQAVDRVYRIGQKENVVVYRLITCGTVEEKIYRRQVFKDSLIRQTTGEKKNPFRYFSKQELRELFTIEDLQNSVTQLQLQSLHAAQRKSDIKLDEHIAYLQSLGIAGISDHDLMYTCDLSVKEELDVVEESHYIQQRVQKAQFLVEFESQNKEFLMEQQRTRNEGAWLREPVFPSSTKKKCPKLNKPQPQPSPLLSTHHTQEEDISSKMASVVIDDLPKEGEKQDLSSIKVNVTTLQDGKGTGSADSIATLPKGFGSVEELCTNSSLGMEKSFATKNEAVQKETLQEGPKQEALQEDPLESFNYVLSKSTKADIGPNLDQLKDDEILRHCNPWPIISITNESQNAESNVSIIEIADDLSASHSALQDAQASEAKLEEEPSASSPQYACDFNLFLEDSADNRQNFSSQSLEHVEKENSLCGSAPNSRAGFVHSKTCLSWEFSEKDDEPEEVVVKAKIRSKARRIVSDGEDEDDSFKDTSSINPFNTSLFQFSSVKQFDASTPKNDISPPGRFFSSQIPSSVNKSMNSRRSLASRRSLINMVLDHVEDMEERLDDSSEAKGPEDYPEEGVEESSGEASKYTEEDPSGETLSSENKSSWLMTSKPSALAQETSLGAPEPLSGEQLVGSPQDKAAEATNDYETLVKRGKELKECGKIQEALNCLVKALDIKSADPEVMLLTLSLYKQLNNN
UniProt Q15286: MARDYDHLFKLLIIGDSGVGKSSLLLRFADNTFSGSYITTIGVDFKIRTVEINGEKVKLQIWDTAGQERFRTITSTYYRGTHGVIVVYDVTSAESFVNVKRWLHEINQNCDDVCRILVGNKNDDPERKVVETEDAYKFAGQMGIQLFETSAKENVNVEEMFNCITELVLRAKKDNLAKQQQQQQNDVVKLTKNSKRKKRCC

compound: COC(=O)/C=C/c1ccccc1 [methyl cinnamate]; experiment: log2 ratio of iodoacetamide-alkyne labeling of the cysteine site, DMSO over compound (competition); higher = stronger covalent engagement of the cysteine by the compound, active = 1 or more; conditions: 500 µM; treatment time 1 h; system: HEK293T cell lysate
Summary of the method: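 HEK293T lysate at 2 mg/mL was treated with vehicle or electrophile (500 µM) for 1 h at ambient temperature, then labelled with iodoacetamide alkyne (1 h), clicked to sCIP-TMT reagents, pooled, digested with trypsin overnight at 37 °C, enriched on streptavidin and eluted with acid. Peptides were analysed by Orbitrap Eclipse LC-MS/MS with FAIMS and quantified in FragPipe, using duplicate channels and three replicates, with cysteines quantified in only one replicate excluded. The log2 competition ratio for each cysteine is the mean control-channel reporter intensity divided by the mean compound-channel reporter intensity.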

log2 ratio of iodoacetamide-alkyne labeling, inactive:
ELAVL1 C13 (UniProt Q15717) 0.0749
EEA1 C1402 (UniProt Q15075) 0.124
UAP1L1 C332 (UniProt Q3KQV9) -0.0332
CEP55 C462 (UniProt Q53EZ4) 0.153
SHB C392 (UniProt Q15464) 0.14
GLYR1 C356 (UniProt Q49A26) 0.102
UniProt Q3LXA3_C13 -0.448
KIF14 C610 (UniProt Q15058) 0.353
PDCD4 C350 (UniProt Q53EL6) 0.126
EFTUD2 C166 (UniProt Q15029) 0.0583
SUZ12 C46 (UniProt Q15022) -0.171
UniProt Q15365_C109 0.141
UniProt Q1ED39_C78 0.235
DLGAP5 C592 (UniProt Q15398) 0.0919
RABEP1 C536 (UniProt Q15276) 0.12
UniProt Q16625_C409 0.158
EIF4H C85 (UniProt Q15056) -0.132
UniProt Q49MG5_C239 0.202
PMVK C38 (UniProt Q15126) 0.132
RBBP7 C166 (UniProt Q16576) 0.0862
ERCC6L C825 (UniProt Q2NKX8) 0.215
UniProt Q15286_C163 0.183

Random excerpt: 2 entries already listed.
log2 ratio of iodoacetamide-alkyne labeling, inactive:
RABEP1 C536 (UniProt Q15276) 0.12
PMVK C38 (UniProt Q15126) 0.132
